Measured values published in doi:10.1101/2020.09.23.309831.
No constants are given. Whether binding was seen depends on the method and setting. Binding seen in cells or lysates may run through a third protein. Some binding calls cover weakened binding; strength is not graded here.

By UniProt entry, the sequences of proteins in these tests, tags left out.
UniProt Q8X1E6, whole entry: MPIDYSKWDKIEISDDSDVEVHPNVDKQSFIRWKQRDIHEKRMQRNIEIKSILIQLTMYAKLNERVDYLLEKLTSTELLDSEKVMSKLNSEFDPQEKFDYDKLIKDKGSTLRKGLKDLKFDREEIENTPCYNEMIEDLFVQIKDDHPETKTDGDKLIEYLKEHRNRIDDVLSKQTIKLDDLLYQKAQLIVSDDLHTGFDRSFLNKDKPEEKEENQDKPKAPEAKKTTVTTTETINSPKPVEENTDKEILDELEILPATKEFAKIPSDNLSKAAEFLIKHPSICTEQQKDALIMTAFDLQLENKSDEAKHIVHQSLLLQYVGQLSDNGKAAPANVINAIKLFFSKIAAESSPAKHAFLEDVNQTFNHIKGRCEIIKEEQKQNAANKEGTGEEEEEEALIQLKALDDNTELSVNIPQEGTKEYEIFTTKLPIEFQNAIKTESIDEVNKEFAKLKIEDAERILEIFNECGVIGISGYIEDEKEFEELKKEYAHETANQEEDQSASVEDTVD
UniProt P46598, whole entry: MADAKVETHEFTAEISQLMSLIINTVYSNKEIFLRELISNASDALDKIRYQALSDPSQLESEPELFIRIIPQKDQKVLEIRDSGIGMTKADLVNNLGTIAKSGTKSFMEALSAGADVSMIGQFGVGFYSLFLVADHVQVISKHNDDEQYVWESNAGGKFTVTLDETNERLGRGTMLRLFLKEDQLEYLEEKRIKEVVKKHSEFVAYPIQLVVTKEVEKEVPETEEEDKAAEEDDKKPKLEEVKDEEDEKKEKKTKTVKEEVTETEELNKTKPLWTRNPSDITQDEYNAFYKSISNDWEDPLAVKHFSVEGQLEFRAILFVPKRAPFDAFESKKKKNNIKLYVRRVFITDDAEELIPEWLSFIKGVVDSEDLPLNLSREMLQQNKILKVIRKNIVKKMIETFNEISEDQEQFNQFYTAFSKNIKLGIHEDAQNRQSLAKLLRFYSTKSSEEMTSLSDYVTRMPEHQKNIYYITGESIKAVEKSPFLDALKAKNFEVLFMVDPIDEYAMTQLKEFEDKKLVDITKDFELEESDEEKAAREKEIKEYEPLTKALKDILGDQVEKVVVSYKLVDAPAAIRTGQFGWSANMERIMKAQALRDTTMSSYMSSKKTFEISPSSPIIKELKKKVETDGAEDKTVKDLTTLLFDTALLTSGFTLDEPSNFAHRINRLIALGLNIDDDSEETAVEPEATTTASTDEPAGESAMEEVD

How the values were obtained:
Assay in all cases: co-IP
[1] = molecular target: HA-tagged Cdc37 (Candida albicans co-chaperone) (C. albicans) (UniProt Q8X1E6)
[2] = molecular target: HA-tagged Aha1 (Candida albicans co-chaperone) (C. albicans)
[3] = molecular target: HA-tagged Sba1 (Candida albicans co-chaperone) (C. albicans)
[4] = molecular target: TAP-tagged Sti1 (Candida albicans co-chaperone) (C. albicans)

Measured: binding

Candida albicans heat shock protein 90 (Hsp90), wild type (from UniProt P46598 1-707)
binds: all assays above
